{
  "sequences": {"note": "By UniProt entry, the sequences of proteins in these tests, tags left out. Where a name states a change or a piece, a line headed by the entry shows the natural chain unless it says otherwise.", "UniProt Q01892": "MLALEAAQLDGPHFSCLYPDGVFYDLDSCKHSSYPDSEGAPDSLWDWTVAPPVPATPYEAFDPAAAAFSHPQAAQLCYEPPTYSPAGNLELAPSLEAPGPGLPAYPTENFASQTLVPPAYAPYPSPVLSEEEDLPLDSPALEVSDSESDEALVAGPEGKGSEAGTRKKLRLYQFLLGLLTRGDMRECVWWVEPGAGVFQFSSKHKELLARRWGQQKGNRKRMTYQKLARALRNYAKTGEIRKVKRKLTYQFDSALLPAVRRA"},
  "source": "paper PMC7862700",
  "note": "Only a part is listed here, and it is no random draw. For some of these results: At the low end of the ranking the order means little.",
  "data": [
    {"molecular_target": "T1, EHF (UniProt Q9NZC4)", "T1 sequence": "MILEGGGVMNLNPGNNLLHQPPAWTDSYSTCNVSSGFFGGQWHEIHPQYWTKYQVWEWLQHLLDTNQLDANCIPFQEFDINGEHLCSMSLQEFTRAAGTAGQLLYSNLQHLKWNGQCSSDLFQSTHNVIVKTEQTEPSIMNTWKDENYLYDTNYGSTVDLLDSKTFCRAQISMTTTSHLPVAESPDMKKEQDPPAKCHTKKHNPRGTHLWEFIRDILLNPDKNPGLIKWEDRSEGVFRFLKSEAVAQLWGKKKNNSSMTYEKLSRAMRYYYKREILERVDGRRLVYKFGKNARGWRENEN", "test": "DAPPL (digital affinity profiling via proximity ligation, sequencing)", "details": "10 mM Tris-HCl pH 7.5, 50 mM NaCl, 1 mM DTT, 4% glycerol, room temperature, 30 min; GST-TFs on glutathione beads, 16-mer random dsDNA library, 0.1% …; high values mean tight binding; double strand, one strand shown; scale: fold enrichment (6-mer frequency, TF over GST control)", "values": [
      {"sequence": "AGCCCT", "binding signal": 1.18},
      {"sequence": "AAGCAG", "binding signal": 1.12},
      {"sequence": "GATCTT", "binding signal": 1.22},
      {"sequence": "ACATTC", "binding signal": 1.25},
      {"sequence": "ATCACT", "binding signal": 1.15},
      {"sequence": "ATGTAC", "binding signal": 1.25},
      {"sequence": "TATTCA", "binding signal": 1.32},
      {"sequence": "ATGAGC", "binding signal": 1.18},
      {"sequence": "CGCGAC", "binding signal": 1.12},
      {"sequence": "CAAAAC", "binding signal": 1.26},
      {"sequence": "CATACT", "binding signal": 1.31},
      {"sequence": "GCGACT", "binding signal": 1.21},
      {"sequence": "GAATTC", "binding signal": 1.43},
      {"sequence": "CCCGCC", "binding signal": 1.53}
    ]},
    {"molecular_target": "SPIB (UniProt Q01892)", "test": "DAPPL (digital affinity profiling via proximity ligation, sequencing)", "details": "10 mM Tris-HCl pH 7.5, 50 mM NaCl, 1 mM DTT, 4% glycerol, room temperature, 30 min; GST-TFs on glutathione beads, 16-mer random dsDNA library, 0.1% …; high values mean tight binding; double strand, one strand shown; scale: fold enrichment (6-mer frequency, TF over GST control)", "values": [
      {"sequence": "AATGCC", "binding signal": 1.17},
      {"sequence": "AAGCAG", "binding signal": 0.967},
      {"sequence": "GATCTT", "binding signal": 1.36},
      {"sequence": "CCTCAT", "binding signal": 1.33},
      {"sequence": "ACATTC", "binding signal": 1.23},
      {"sequence": "TATGCG", "binding signal": 1.29},
      {"sequence": "GTTTCC", "binding signal": 2.84},
      {"sequence": "TTAGTA", "binding signal": 1.06},
      {"sequence": "GATGAA", "binding signal": 1.24},
      {"sequence": "ATGTAC", "binding signal": 1.27},
      {"sequence": "CATGAA", "binding signal": 0.967},
      {"sequence": "TATTCA", "binding signal": 1.27},
      {"sequence": "TATCAG", "binding signal": 1.2},
      {"sequence": "CGTATG", "binding signal": 1.09},
      {"sequence": "TAGTCC", "binding signal": 1.06},
      {"sequence": "ATTCAG", "binding signal": 1.02},
      {"sequence": "TTACTG", "binding signal": 0.991},
      {"sequence": "ATGAAT", "binding signal": 1.23},
      {"sequence": "AATGCA", "binding signal": 1.34},
      {"sequence": "TGGCAG", "binding signal": 1.12},
      {"sequence": "GGCTTC", "binding signal": 1.78},
      {"sequence": "GTTCCG", "binding signal": 2.15},
      {"sequence": "CACGAA", "binding signal": 0.988},
      {"sequence": "CTCTTG", "binding signal": 1.43},
      {"sequence": "GGCTAG", "binding signal": 1.18},
      {"sequence": "ACCCTA", "binding signal": 1.16},
      {"sequence": "CAGCTT", "binding signal": 1.2},
      {"sequence": "GCGACT", "binding signal": 1.33},
      {"sequence": "CAACAA", "binding signal": 0.992},
      {"sequence": "CGTTAC", "binding signal": 1.11},
      {"sequence": "TTCTCA", "binding signal": 1.31},
      {"sequence": "GAATTC", "binding signal": 1.38}
    ]},
    {"molecular_target": "T2, ETV3L (UniProt Q6ZN32)", "T2 sequence": "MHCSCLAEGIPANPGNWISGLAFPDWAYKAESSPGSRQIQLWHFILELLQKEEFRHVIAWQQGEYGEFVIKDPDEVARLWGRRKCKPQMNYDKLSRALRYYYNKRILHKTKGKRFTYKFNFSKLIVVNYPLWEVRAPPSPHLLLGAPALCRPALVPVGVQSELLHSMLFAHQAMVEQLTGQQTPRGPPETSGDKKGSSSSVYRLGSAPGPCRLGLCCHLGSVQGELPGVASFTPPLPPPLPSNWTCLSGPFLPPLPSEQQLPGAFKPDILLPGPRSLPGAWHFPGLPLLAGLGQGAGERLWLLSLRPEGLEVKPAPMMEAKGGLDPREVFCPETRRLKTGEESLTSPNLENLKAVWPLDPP", "test": "DAPPL (digital affinity profiling via proximity ligation, sequencing)", "details": "10 mM Tris-HCl pH 7.5, 50 mM NaCl, 1 mM DTT, 4% glycerol, room temperature, 30 min; GST-TFs on glutathione beads, 16-mer random dsDNA library, 0.1% …; high values mean tight binding; double strand, one strand shown; scale: fold enrichment (6-mer frequency, TF over GST control)", "values": [
      {"sequence": "AGCCCT", "binding signal": 1.12},
      {"sequence": "AATGCC", "binding signal": 1.07},
      {"sequence": "AAGCAG", "binding signal": 1.04},
      {"sequence": "GATCTT", "binding signal": 1.15},
      {"sequence": "CCTCAT", "binding signal": 1.37},
      {"sequence": "ACATTC", "binding signal": 1.3},
      {"sequence": "TATGCG", "binding signal": 1.39},
      {"sequence": "GTTTCC", "binding signal": 2.7},
      {"sequence": "ATCACT", "binding signal": 1.16},
      {"sequence": "TTAGTA", "binding signal": 1.07},
      {"sequence": "GATGAA", "binding signal": 1.25},
      {"sequence": "ATGTAC", "binding signal": 1.32},
      {"sequence": "CATGAA", "binding signal": 0.995},
      {"sequence": "TATTCA", "binding signal": 1.43},
      {"sequence": "TATCAG", "binding signal": 1.11},
      {"sequence": "CGTATG", "binding signal": 1.07},
      {"sequence": "TAGTCC", "binding signal": 1.12},
      {"sequence": "ATGAGC", "binding signal": 1.14},
      {"sequence": "CGCGAC", "binding signal": 1.04},
      {"sequence": "ATTCAG", "binding signal": 1.2},
      {"sequence": "TTACTG", "binding signal": 1.04},
      {"sequence": "ATGAAT", "binding signal": 1.14},
      {"sequence": "CAAAAC", "binding signal": 1.27},
      {"sequence": "AATGCA", "binding signal": 1.28},
      {"sequence": "TGGCAG", "binding signal": 1.12},
      {"sequence": "GGCTTC", "binding signal": 1.61},
      {"sequence": "GTTCCG", "binding signal": 1.93},
      {"sequence": "CACGAA", "binding signal": 1.01},
      {"sequence": "CTCTTG", "binding signal": 1.42},
      {"sequence": "GGCTAG", "binding signal": 1.06},
      {"sequence": "CATACT", "binding signal": 1.33},
      {"sequence": "ACCCTA", "binding signal": 1.26},
      {"sequence": "CAGCTT", "binding signal": 1.2},
      {"sequence": "GCGACT", "binding signal": 1.17},
      {"sequence": "CAACAA", "binding signal": 0.992},
      {"sequence": "CGTTAC", "binding signal": 1.18},
      {"sequence": "TTCTCA", "binding signal": 1.23},
      {"sequence": "GAATTC", "binding signal": 1.41},
      {"sequence": "CCCGCC", "binding signal": 1.56}
    ]}
  ]
}
